Measured values taken from patent publication US20240417469A1.
Results are given in words; binding and its absence hold for the method and conditions named. Some binding calls cover weakened binding; strength is not graded here.

Sequences of proteins named here, by UniProt entry; tags and fusion partners are left off. A change or cut given only in a name is not applied to a line headed by its entry.
UniProt P07766: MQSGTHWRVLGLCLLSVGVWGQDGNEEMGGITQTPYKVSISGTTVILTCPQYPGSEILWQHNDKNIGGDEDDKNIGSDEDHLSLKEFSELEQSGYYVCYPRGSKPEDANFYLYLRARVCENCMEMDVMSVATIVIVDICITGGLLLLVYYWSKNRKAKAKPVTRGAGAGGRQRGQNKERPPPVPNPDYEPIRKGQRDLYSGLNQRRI
UniProt P04234: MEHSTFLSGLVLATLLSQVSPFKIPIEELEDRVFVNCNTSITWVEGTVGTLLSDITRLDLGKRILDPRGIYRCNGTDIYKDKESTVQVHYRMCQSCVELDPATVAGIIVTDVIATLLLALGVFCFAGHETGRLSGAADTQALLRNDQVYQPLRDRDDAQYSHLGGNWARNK

What follows are binders tested against human CD3 protein (human) (UniProt P07766+P04234) (assay: ELISA).

binding	Binder
binds	Hu153A6B1-7 (antibody, V domains shown) VH: EVQLQESGPGLVKPSETLSLTCTVSGGSISSYNIHWIRQPPGKGLEWIGRIRYNGDTSYNSALKSRVTISVDTSKNQFSLKLSSVTAADTAVYYCARGPYGGSREPLFDYWGQGTMVTVSS VL: DIQMTQSPSSLSASVGDRVTITCKTSQNINKYLNWFQQKPGKAPKLLIYTTNNLQTGIPSRFSGSGSGTDFTLTISSLQPEDFATYYCLQHGSGYTFGQGTKLEIK
binds	Hu153A6B1-3 (antibody, V domains shown) VH: EVQLQESGPGLVKPSETLSLTCTVSGGSISSYNIHWVRQPPGKGLEWMGRIRYNGDTSYNSALKSRLTISRDTSKNQFSLKLSSVTAADTAVYYCARGPYGGSREPLFDYWGQGTMVTVSS VL: DIQMTQSPSSLSASVGDRVTITCKTSQNINKYLNWYQQKPGKAPKLLIYTTNNLQTGVPSRFSGSGSGTDFTLTISSLQPEDFATYYCLQHGSGYTFGQGTKLEIK
binds	Hu153A6B1-18 (antibody, V domains shown) VH: EVQLQESGPGLVKPSETLSLTCTVSGFSLTSYNIHWVRQPPGKGLEWMGRIRYNGDTSYNSALKSRLTISRDTSKNQVSLKLSSVTAADTAVYYCTRGPYGGSREPLFDYWGQGTMVTVSS VL: DIQMTQSPSSLSASVGDRVTITCKTSQNINKYLNWFQQKPGKAPKLLIYTTNNLQTGIPSRFSGSGSGTDFTLTISSLQPEDFATYFCLQHGSGYTFGQGTKLEIK
binds	Hu155A9B1-1 (antibody, V domains shown) VH: EVQLQESGPGLVKPSETLSLTCTVSGGSISSYNVHWIRQPPGKGLEWIGRVRYNGDTSYNSALKSRVTISVDTSKNQFSLKLSSVTAADTAVYYCARGPYGGSSEPLFDYWGQGTMVTVSS VL: DIQMTQSPSSLSASVGDRVTITCKASQNINKYLNWYQQKPGKAPRLLIYTTNNLQTGVPSRFSGSGSGTDFTLTISSLQPEDFATYYCLQHNSGYTFGQGTKLEIK
binds	Hu153A6B1-13 (antibody, V domains shown) VH: EVQLQESGPGLVKPSETLSLTCTVSGGSISSYNIHWIRQPPGKGLEWIGRIRYNGDTSYNSALKSRVTISVDTSKNQFSLKLSSVTAADTAVYYCARGPYGGSREPLFDYWGQGTMVTVSS VL: DIQMTQSPSSLSASVGDRVTITCKTSQNINKYLNWFQQKPGKAPKLLIYTTNNLQTGIPSRFSGSGSGTDFTLTISSLQPEDFATYFCLQHGSGYTFGQGTKLEIK
binds	Hu153A6B1-2 (antibody, V domains shown) VH: EVQLQESGPGLVKPSETLSLTCTVSGGSISSYNIHWVRQPPGKGLEWIGRIRYNGDTSYNSALKSRVTISRDTSKNQFSLKLSSVTAADTAVYYCARGPYGGSREPLFDYWGQGTMVTVSS VL: DIQMTQSPSSLSASVGDRVTITCKTSQNINKYLNWYQQKPGKAPKLLIYTTNNLQTGVPSRFSGSGSGTDFTLTISSLQPEDFATYYCLQHGSGYTFGQGTKLEIK
binds	Hu153A6B1-10 (antibody, V domains shown) VH: EVQLQESGPGLVKPSETLSLTCTVSGGSISSYNIHWVRQPPGKGLEWMGRIRYNGDTSYNSALKSRLTISRDTSKNQFSLKLSSVTAADTAVYYCTRGPYGGSREPLFDYWGQGTMVTVSS VL: DIQMTQSPSSLSASVGDRVTITCKTSQNINKYLNWFQQKPGKAPKLLIYTTNNLQTGIPSRFSGSGSGTDFTLTISSLQPEDFATYYCLQHGSGYTFGQGTKLEIK
binds	Hu153A6B1-14 (antibody, V domains shown) VH: EVQLQESGPGLVKPSETLSLTCTVSGGSISSYNIHWVRQPPGKGLEWIGRIRYNGDTSYNSALKSRVTISRDTSKNQFSLKLSSVTAADTAVYYCARGPYGGSREPLFDYWGQGTMVTVSS VL: DIQMTQSPSSLSASVGDRVTITCKTSQNINKYLNWFQQKPGKAPKLLIYTTNNLQTGIPSRFSGSGSGTDFTLTISSLQPEDFATYFCLQHGSGYTFGQGTKLEIK
binds	Hu155A9B1-3 (antibody, V domains shown) VH: EVQLQESGPGLVKPSETLSLTCTVSGGSISSYNVHWVRQPPGKGLEWMGRVRYNGDTSYNSALKSRLTISRDTSKNQFSLKLSSVTAADTAVYYCARGPYGGSSEPLFDYWGQGTMVTVSS VL: DIQMTQSPSSLSASVGDRVTITCKASQNINKYLNWYQQKPGKAPRLLIYTTNNLQTGVPSRFSGSGSGTDFTLTISSLQPEDFATYYCLQHNSGYTFGQGTKLEIK
binds	Hu153A6B1-4 (antibody, V domains shown) VH: EVQLQESGPGLVKPSETLSLTCTVSGGSISSYNIHWVRQPPGKGLEWMGRIRYNGDTSYNSALKSRLTISRDTSKNQFSLKLSSVTAADTAVYYCTRGPYGGSREPLFDYWGQGTMVTVSS VL: DIQMTQSPSSLSASVGDRVTITCKTSQNINKYLNWYQQKPGKAPKLLIYTTNNLQTGVPSRFSGSGSGTDFTLTISSLQPEDFATYYCLQHGSGYTFGQGTKLEIK
binds	Hu153A6B1-8 (antibody, V domains shown) VH: EVQLQESGPGLVKPSETLSLTCTVSGGSISSYNIHWVRQPPGKGLEWIGRIRYNGDTSYNSALKSRVTISRDTSKNQFSLKLSSVTAADTAVYYCARGPYGGSREPLFDYWGQGTMVTVSS VL: DIQMTQSPSSLSASVGDRVTITCKTSQNINKYLNWFQQKPGKAPKLLIYTTNNLQTGIPSRFSGSGSGTDFTLTISSLQPEDFATYYCLQHGSGYTFGQGTKLEIK
binds	Hu153A6B1-16 (antibody, V domains shown) VH: EVQLQESGPGLVKPSETLSLTCTVSGGSISSYNIHWVRQPPGKGLEWMGRIRYNGDTSYNSALKSRLTISRDTSKNQFSLKLSSVTAADTAVYYCTRGPYGGSREPLFDYWGQGTMVTVSS VL: DIQMTQSPSSLSASVGDRVTITCKTSQNINKYLNWFQQKPGKAPKLLIYTTNNLQTGIPSRFSGSGSGTDFTLTISSLQPEDFATYFCLQHGSGYTFGQGTKLEIK
binds	Hu153A6B1-6 (antibody, V domains shown) VH: EVQLQESGPGLVKPSETLSLTCTVSGFSLTSYNIHWVRQPPGKGLEWMGRIRYNGDTSYNSALKSRLTISRDTSKNQVSLKLSSVTAADTAVYYCTRGPYGGSREPLFDYWGQGTMVTVSS VL: DIQMTQSPSSLSASVGDRVTITCKTSQNINKYLNWYQQKPGKAPKLLIYTTNNLQTGVPSRFSGSGSGTDFTLTISSLQPEDFATYYCLQHGSGYTFGQGTKLEIK

More lines, now with the values behind:

Binder	binding
Hu153A6B1-1 (antibody, V domains shown) VH: EVQLQESGPGLVKPSETLSLTCTVSGGSISSYNIHWIRQPPGKGLEWIGRIRYNGDTSYNSALKSRVTISVDTSKNQFSLKLSSVTAADTAVYYCARGPYGGSREPLFDYWGQGTMVTVSS VL: DIQMTQSPSSLSASVGDRVTITCKTSQNINKYLNWYQQKPGKAPKLLIYTTNNLQTGVPSRFSGSGSGTDFTLTISSLQPEDFATYYCLQHGSGYTFGQGTKLEIK	binds
Hu153A6B1-9 (antibody, V domains shown) VH: EVQLQESGPGLVKPSETLSLTCTVSGGSISSYNIHWVRQPPGKGLEWMGRIRYNGDTSYNSALKSRLTISRDTSKNQFSLKLSSVTAADTAVYYCARGPYGGSREPLFDYWGQGTMVTVSS VL: DIQMTQSPSSLSASVGDRVTITCKTSQNINKYLNWFQQKPGKAPKLLIYTTNNLQTGIPSRFSGSGSGTDFTLTISSLQPEDFATYYCLQHGSGYTFGQGTKLEIK	binds
Hu153A6B1-11 (antibody, V domains shown) VH: EVQLQESGPGLVKPSETLSLTCTVSGFSISSYNIHWVRQPPGKGLEWMGRIRYNGDTSYNSALKSRLTISRDTSKNQVSLKLSSVTAADTAVYYCTRGPYGGSREPLFDYWGQGTMVTVSS VL: DIQMTQSPSSLSASVGDRVTITCKTSQNINKYLNWFQQKPGKAPKLLIYTTNNLQTGIPSRFSGSGSGTDFTLTISSLQPEDFATYYCLQHGSGYTFGQGTKLEIK	binds
Hu153A6B1-5 (antibody, V domains shown) VH: EVQLQESGPGLVKPSETLSLTCTVSGFSISSYNIHWVRQPPGKGLEWMGRIRYNGDTSYNSALKSRLTISRDTSKNQVSLKLSSVTAADTAVYYCTRGPYGGSREPLFDYWGQGTMVTVSS VL: DIQMTQSPSSLSASVGDRVTITCKTSQNINKYLNWYQQKPGKAPKLLIYTTNNLQTGVPSRFSGSGSGTDFTLTISSLQPEDFATYYCLQHGSGYTFGQGTKLEIK	binds
Hu153A6B1-12 (antibody, V domains shown) VH: EVQLQESGPGLVKPSETLSLTCTVSGFSLTSYNIHWVRQPPGKGLEWMGRIRYNGDTSYNSALKSRLTISRDTSKNQVSLKLSSVTAADTAVYYCTRGPYGGSREPLFDYWGQGTMVTVSS VL: DIQMTQSPSSLSASVGDRVTITCKTSQNINKYLNWFQQKPGKAPKLLIYTTNNLQTGIPSRFSGSGSGTDFTLTISSLQPEDFATYYCLQHGSGYTFGQGTKLEIK	binds
Hu155A9B1-4 (antibody, V domains shown) VH: EVQLQESGPGLVKPSETLSLTCTVSGGSISSYNVHWVRQPPGKGLEWMGRVRYNGDTSYNSALKSRLTISRDTSKNQFSLKLSSVTAADTAVYYCTRGPYGGSSEPLFDYWGQGTMVTVSS VL: DIQMTQSPSSLSASVGDRVTITCKASQNINKYLNWYQQKPGKAPRLLIYTTNNLQTGVPSRFSGSGSGTDFTLTISSLQPEDFATYYCLQHNSGYTFGQGTKLEIK	binds
Hu155A9B1-2 (antibody, V domains shown) VH: EVQLQESGPGLVKPSETLSLTCTVSGGSISSYNVHWVRQPPGKGLEWIGRVRYNGDTSYNSALKSRVTISRDTSKNQFSLKLSSVTAADTAVYYCARGPYGGSSEPLFDYWGQGTMVTVSS VL: DIQMTQSPSSLSASVGDRVTITCKASQNINKYLNWYQQKPGKAPRLLIYTTNNLQTGVPSRFSGSGSGTDFTLTISSLQPEDFATYYCLQHNSGYTFGQGTKLEIK	binds
Hu153A6B1-15 (antibody, V domains shown) VH: EVQLQESGPGLVKPSETLSLTCTVSGGSISSYNIHWVRQPPGKGLEWMGRIRYNGDTSYNSALKSRLTISRDTSKNQFSLKLSSVTAADTAVYYCARGPYGGSREPLFDYWGQGTMVTVSS VL: DIQMTQSPSSLSASVGDRVTITCKTSQNINKYLNWFQQKPGKAPKLLIYTTNNLQTGIPSRFSGSGSGTDFTLTISSLQPEDFATYFCLQHGSGYTFGQGTKLEIK	binds
Hu153A6B1-17 (antibody, V domains shown) VH: EVQLQESGPGLVKPSETLSLTCTVSGFSISSYNIHWVRQPPGKGLEWMGRIRYNGDTSYNSALKSRLTISRDTSKNQVSLKLSSVTAADTAVYYCTRGPYGGSREPLFDYWGQGTMVTVSS VL: DIQMTQSPSSLSASVGDRVTITCKTSQNINKYLNWFQQKPGKAPKLLIYTTNNLQTGIPSRFSGSGSGTDFTLTISSLQPEDFATYFCLQHGSGYTFGQGTKLEIK	binds
